Article PMC3735939, “The low levels of eicosapentaenoic acid in rat brain phospholipids are maintained via multiple redundant mechanisms” (Journal of Lipid Research, 2013)

Experiment: Brain total phospholipid and phospholipid class FA concentrations (GC-FID)
Assay type: in vivo, rat
Settings: for percent of total EtnGpl FAs: brain EtnGpl; for percent of total PtdSer FAs: brain PtdSer; for percent of total ChoGpl FAs: brain ChoGpl
Text: Total lipids from one brain hemisphere and from plasma were extracted by the method of Folch, Lees, and Sloane Stanley ([39]). Isolation of various neutral lipid and phospholipid classes from the total lipid extract was previously described by Chen, Liu, and Bazinet ([6]).
Brain FA concentrations from total and phospholipid classes were quantified as described by Chen, Liu, and Bazinet ([6]).

CCCCCC/C=C\CCCCCCCC(=O)O [16:1n-7, palmitoleate]
Brain FA concentration in ChoGpl (MEP): 145 ± 11 nmol/g brain
Brain FA concentration in EtnGpl (MEP): 143 ± 45 nmol/g brain
Brain FA concentration in PtdIns (MEP): 11 ± 1.3 nmol/g brain
Brain FA concentration in PtdSer (MEP): 5.8 ± 1.1 nmol/g brain
Brain Total PL FA concentration (MEP 10 mg/kg): 327 ± 48 nmol/g brain
Brain FA concentration in ChoGpl (Vehicle): 146 ± 14 nmol/g brain
Brain FA concentration in EtnGpl (Vehicle): 148 ± 62 nmol/g brain
Brain FA concentration in PtdIns (Vehicle): 12 ± 3 nmol/g brain
Brain FA concentration in PtdSer (Vehicle): 6.0 ± 1.2 nmol/g brain
Brain Total PL FA concentration (Vehicle): 376 ± 65 nmol/g brain

CCCCCCCCCCCCCCCCCC(=O)O [18:0, stearate]
Brain FA concentration in ChoGpl (MEP): 6,403 ± 150 nmol/g brain
Brain FA concentration in EtnGpl (MEP): 6,492 ± 213 nmol/g brain
Brain FA concentration in PtdIns (MEP): 1,811 ± 138 nmol/g brain
Brain FA concentration in PtdSer (MEP): 6,104 ± 414 nmol/g brain
Brain Total PL FA concentration (MEP 10 mg/kg): 21,349 ± 561 nmol/g brain
Brain FA concentration in EtnGpl (Vehicle): 6,590 ± 257 nmol/g brain
Brain FA concentration in PtdIns (Vehicle): 1,933 ± 355 nmol/g brain
Brain FA concentration in PtdSer (Vehicle): 6,441 ± 704 nmol/g brain
Brain Total PL FA concentration (Vehicle): 22,241 ± 2,610 nmol/g brain
percent of total FAs in brain phospholipids: 22%

CCCCCCCC/C=C\CCCCCCCC(=O)O [18:1n-9, oleate]
Brain FA concentration in ChoGpl (MEP): 10,705 ± 373 nmol/g brain
Brain FA concentration in EtnGpl (MEP): 8,235 ± 507 nmol/g brain
Brain FA concentration in PtdIns (MEP): 813 ± 72 nmol/g brain
Brain FA concentration in PtdSer (MEP): 2,899 ± 278 nmol/g brain
Brain Total PL FA concentration (MEP 10 mg/kg): 20,370 ± 960 nmol/g brain
Brain FA concentration in ChoGpl (Vehicle): 10,893 ± 1,098 nmol/g brain
Brain FA concentration in EtnGpl (Vehicle): 8,833 ± 973 nmol/g brain
Brain FA concentration in PtdIns (Vehicle): 864 ± 199 nmol/g brain
Brain FA concentration in PtdSer (Vehicle): 3,165 ± 528 nmol/g brain
Brain Total PL FA concentration (Vehicle): 21,384 ± 3,400 nmol/g brain
percent of total FAs in brain phospholipids: 21%

CCCCC/C=C\C/C=C\CCCCCCCC(=O)O [18:2n-6, linoleate]
Brain FA concentration in ChoGpl (MEP): 452 ± 36 nmol/g brain
Brain FA concentration in EtnGpl (MEP): 166 ± 11 nmol/g brain
Brain FA concentration in PtdIns (MEP): 41 ± 5.2 nmol/g brain
Brain FA concentration in PtdSer (MEP): 24 ± 5.4 nmol/g brain
Brain Total PL FA concentration (MEP 10 mg/kg): 743 ± 52 nmol/g brain
Brain FA concentration in ChoGpl (Vehicle): 464 ± 32 nmol/g brain
Brain FA concentration in EtnGpl (Vehicle): 182 ± 10 nmol/g brain
Brain FA concentration in PtdIns (Vehicle): 44 ± 10 nmol/g brain
Brain FA concentration in PtdSer (Vehicle): 26 ± 6 nmol/g brain
Brain Total PL FA concentration (Vehicle): 770 ± 49 nmol/g brain

CC/C=C\C/C=C\C/C=C\CCCCCCCC(=O)O [18:3n-3, α-linolenate]
Brain FA concentration in ChoGpl (MEP): 10 ± 0.83 nmol/g brain
Brain FA concentration in EtnGpl (MEP): 13 ± 1.5 nmol/g brain
Brain FA concentration in PtdIns (MEP): 1.2 ± 0.15 nmol/g brain
Brain FA concentration in PtdSer (MEP): 2.7 ± 0.46 nmol/g brain
Brain Total PL FA concentration (MEP 10 mg/kg): 24 ± 2.7 nmol/g brain
Brain FA concentration in ChoGpl (Vehicle): 11 ± 1.3 nmol/g brain
Brain FA concentration in EtnGpl (Vehicle): 14 ± 3.1 nmol/g brain
Brain FA concentration in PtdIns (Vehicle): 1.2 ± 0.32 nmol/g brain
Brain FA concentration in PtdSer (Vehicle): 2.9 ± 0.46 nmol/g brain
Brain Total PL FA concentration (Vehicle): 27 ± 6.5 nmol/g brain

CCCCC/C=C\C/C=C\C/C=C\C/C=C\CCCC(=O)O [ARA, arachidonic acid]
Brain FA concentration in ChoGpl (MEP): 2,255 ± 70 nmol/g brain
Brain FA concentration in EtnGpl (MEP): 4,089 ± 154 nmol/g brain
Brain FA concentration in PtdIns (MEP): 1,279 ± 126 nmol/g brain
Brain FA concentration in PtdSer (MEP): 411 ± 32 nmol/g brain
Brain Total PL FA concentration (MEP 10 mg/kg): 7,797 ± 318 nmol/g brain
Brain FA concentration in ChoGpl (Vehicle): 2,242 ± 169 nmol/g brain
Brain FA concentration in EtnGpl (Vehicle): 4,302 ± 322 nmol/g brain
Brain FA concentration in PtdIns (Vehicle): 1,330 ± 226 nmol/g brain
Brain FA concentration in PtdSer (Vehicle): 449 ± 46 nmol/g brain
Brain Total PL FA concentration (Vehicle): 7,921 ± 791 nmol/g brain
percent of total FAs in brain phospholipids: 8%

CC/C=C\C/C=C\C/C=C\C/C=C\C/C=C\C/C=C\CCC(=O)O [DHA, docosahexaenoic acid]
Brain FA concentration in ChoGpl (MEP): 1,387 ± 85 nmol/g brain
Brain FA concentration in EtnGpl (MEP): 5,448 ± 356 nmol/g brain
Brain FA concentration in PtdIns (MEP): 185 ± 40 nmol/g brain
Brain FA concentration in PtdSer (MEP): 2,331 ± 105 nmol/g brain
Brain Total PL FA concentration (MEP 10 mg/kg): 8,729 ± 380 nmol/g brain
Brain FA concentration in ChoGpl (Vehicle): 1,351 ± 100 nmol/g brain
Brain FA concentration in EtnGpl (Vehicle): 5,812 ± 485 nmol/g brain
Brain FA concentration in PtdIns (Vehicle): 196 ± 49 nmol/g brain
Brain FA concentration in PtdSer (Vehicle): 2,357 ± 161 nmol/g brain
Brain Total PL FA concentration (Vehicle): 8,789 ± 830 nmol/g brain
percent of total EtnGpl FAs: 17%
percent of total PtdSer FAs: 17%
percent of total FAs in brain phospholipids: 9%

CC/C=C\C/C=C\C/C=C\C/C=C\C/C=C\CCCC(=O)O [EPA, eicosapentaenoic acid]
Brain FA concentration in ChoGpl (MEP): 60 ± 8.7 nmol/g brain
Brain FA concentration in EtnGpl (MEP): 65 ± 11 nmol/g brain
Brain FA concentration in PtdIns (MEP): 24 ± 6.2 nmol/g brain
Brain FA concentration in PtdSer (MEP): 50 ± 9.4 nmol/g brain
Brain Total PL FA concentration (MEP 10 mg/kg): 202 ± 8.6 nmol/g brain
Brain Total PL FA concentration (MEP 10 mg/kg, listed as 20:5n-3): 202 ± 29 nmol/g brain
Brain FA concentration in ChoGpl (Vehicle): 61 ± 9 nmol/g brain
Brain FA concentration in EtnGpl (Vehicle): 74 ± 16 nmol/g brain
Brain FA concentration in PtdIns (Vehicle): 26 ± 12 nmol/g brain
Brain FA concentration in PtdSer (Vehicle): 57 ± 17 nmol/g brain
Brain Total PL FA concentration (Vehicle): 225 ± 12 nmol/g brain
Brain Total PL FA concentration (Vehicle, listed as 20:5n-3): 225 ± 37 nmol/g brain
percent of total ChoGpl FAs: 0.1%
percent of total EtnGpl FAs: 0.2%
percent of total PtdIns FAs (brain PtdIns): 0.5%
percent of total PtdSer FAs: 0.4%
percent of total FAs in brain phospholipids: 0.2%

CCCCCCCCCCCCCCCC(=O)O [Palmitate, [1-14C]palmitate]
Brain FA concentration in ChoGpl (MEP): 23,762 ± 492 nmol/g brain
Brain FA concentration in EtnGpl (MEP): 2,786 ± 107 nmol/g brain
Brain FA concentration in PtdIns (MEP): 746 ± 67 nmol/g brain
Brain FA concentration in PtdSer (MEP): 333 ± 23 nmol/g brain
Brain Total PL FA concentration (MEP 10 mg/kg): 23,932 ± 725 nmol/g brain
Brain FA concentration in ChoGpl (Vehicle): 23,818 ± 1,531 nmol/g brain
Brain FA concentration in EtnGpl (Vehicle): 2,903 ± 242 nmol/g brain
Brain FA concentration in PtdIns (Vehicle): 807 ± 199 nmol/g brain
Brain FA concentration in PtdSer (Vehicle): 367 ± 89 nmol/g brain
Brain Total PL FA concentration (Vehicle): 24,559 ± 2030 nmol/g brain
percent of total ChoGpl FAs: 48%
percent of total FAs in brain phospholipids: 25%

CC/C=C\C/C=C\C/C=C\C/C=C\C/C=C\CCCCCC(=O)O [n-3 DPA, n-3 docosapentaenoic acid]
Brain FA concentration in ChoGpl (MEP): 3.5 ± 0.37 nmol/g brain
Brain FA concentration in EtnGpl (MEP): 8.7 ± 1 nmol/g brain
Brain FA concentration in PtdIns (MEP): 0.69 ± 0.13 nmol/g brain
Brain FA concentration in PtdSer (MEP): 5.7 ± 0.5 nmol/g brain
Brain Total PL FA concentration (MEP 10 mg/kg): 16 ± 2 nmol/g brain
Brain FA concentration in ChoGpl (Vehicle): 3.7 ± 0.65 nmol/g brain
Brain FA concentration in EtnGpl (Vehicle): 8.6 ± 0.73 nmol/g brain
Brain FA concentration in PtdIns (Vehicle): 0.81 ± 0.27 nmol/g brain
Brain FA concentration in PtdSer (Vehicle): 5.8 ± 0.84 nmol/g brain
Brain Total PL FA concentration (Vehicle): 17 ± 3 nmol/g brain
